According to article PMC5821850, “Basal condensation of Numb and Pon complex via phase transition during Drosophila neuroblast asymmetric division” (Nature Communications, 2018):
Residue numbers refer to the chain shown, from its start. Numbers in names are those of the source. Results are given in words; binding and its absence hold for the method and conditions named. For part of these data: A result given as binding can be weak or reduced; the word gives no strength. For part of these data: Sequences can lack the tags named with a protein. For part of these data: Binding seen in cells or lysates may run through a third protein. Each block holds one molecule with its values, some of them ahead of it.

How the values were obtained:
[1] = biological target: T1, Numb full length (HA-Numb and Flag-Numb) (Drosophila) (UniProt P16554); assay: co-IP; grade 'Binding avidity' of the summary table for full-length Pon and Numb; the table names no assay: full-length Pon and Numb were tested together only by co-IP in HEK293T cells (anti-Flag gel; Fig. 2e, f)
T1 sequence: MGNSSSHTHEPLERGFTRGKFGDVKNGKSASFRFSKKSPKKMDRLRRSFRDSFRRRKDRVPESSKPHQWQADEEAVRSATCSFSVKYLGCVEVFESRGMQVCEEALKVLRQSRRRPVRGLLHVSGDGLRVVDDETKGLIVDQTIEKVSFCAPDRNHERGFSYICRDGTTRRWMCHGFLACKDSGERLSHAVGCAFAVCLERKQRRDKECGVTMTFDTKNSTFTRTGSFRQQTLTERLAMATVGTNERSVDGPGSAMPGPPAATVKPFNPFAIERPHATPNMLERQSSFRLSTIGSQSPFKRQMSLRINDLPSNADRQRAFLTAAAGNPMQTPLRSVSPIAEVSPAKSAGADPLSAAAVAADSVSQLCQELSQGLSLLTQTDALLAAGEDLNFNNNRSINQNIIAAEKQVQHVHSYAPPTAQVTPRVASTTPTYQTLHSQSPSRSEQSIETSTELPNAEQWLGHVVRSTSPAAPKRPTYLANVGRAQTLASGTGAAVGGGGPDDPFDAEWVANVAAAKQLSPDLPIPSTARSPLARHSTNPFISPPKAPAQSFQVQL

HA-Numb PTB (Drosophila) = biological target: T2, HA-Numb PTB (Drosophila) (UniProt P16554); assay: co-IP; HEK293T cells co-transfected with HA-Numb PTB and Flag-Pon full length or fragments; IP: HA, blot: Flag
T2 sequence: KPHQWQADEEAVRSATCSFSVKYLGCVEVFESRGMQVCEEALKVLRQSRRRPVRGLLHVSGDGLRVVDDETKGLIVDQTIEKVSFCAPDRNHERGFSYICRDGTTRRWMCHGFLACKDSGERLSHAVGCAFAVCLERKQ

[2] = biological target: T3, GST-Numb PTB (Drosophila) (UniProt P16554); assay: pull-down; GST-Numb PTB or GST as bait; lysates of HEK293T cells expressing Flag-Pon full length or fragments; blot: Flag; only the target purified
T3 sequence: T2 sequence

Numb PTB R171A = biological target: T4, Numb PTB R171A (Drosophila, UniProt P16554-1 65-203, R171A); assay: ITC; Pon fragments (~0.5 mM) injected into PTB proteins (~0.05 mM); 20 °C; 50 mM Tris pH 8.0, 100 mM NaCl, 1 mM EDTA, 1 mM β-ME; one-site binding model; both purified
T4 sequence: T2 sequence with R107A

[3] = biological target: T3, GST-Numb PTB (Drosophila); assay: pull-down; GST or GST fusion (2 nmol) on GSH-Sepharose 4B, 6 nmol of the other protein (1:3 molar ratio), 500 μl buffer A (50 mM Tris pH 8.0, 100 mM NaCl, 1 mM EDTA, 1 mM β-ME), 1 h at 4 °C; SDS-PAGE, Coomassie; both purified
[4] = biological target: T3, GST-Numb PTB (Drosophila); assay: pull-down; GST or GST fusion proteins (2 nmol) on GSH-Sepharose 4B beads, 6 nmol of the indicated protein in 500 μl buffer A (50 mM Tris pH 8.0, 1 mM EDTA, 1 mM β-ME, 100 mM NaCl), 1 h at 4 °C; SDS-PAGE, Coomassie blue; both purified
[5] = biological target: T5, Drosophila Numb PTB domain (aa 65-203) (Drosophila) (UniProt P16554); assay: AUC; sedimentation velocity, 42,000 rpm, 4 °C, interference detection; Numb PTB with three molar ratios of Pon A2B2; both purified
T5 sequence: T2 sequence

[6] = biological target: GST-Pon1-228 (Drosophila); assay: pull-down; GST or GST fusion (2 nmol) on GSH-Sepharose 4B, 6 nmol of the other protein (1:3 molar ratio), 500 μl buffer A (50 mM Tris pH 8.0, 100 mM NaCl, 1 mM EDTA, 1 mM β-ME), 1 h at 4 °C; SDS-PAGE, Coomassie; both purified
[7] = biological target: GST-Pon1-228 (Drosophila); assay: pull-down; GST or GST fusion proteins (2 nmol) on GSH-Sepharose 4B beads, 6 nmol of the indicated protein in 500 μl buffer A (50 mM Tris pH 8.0, 1 mM EDTA, 1 mM β-ME, 100 mM NaCl), 1 h at 4 °C; SDS-PAGE, Coomassie blue; both purified
[8] = biological target: Flag-Pon full length (Drosophila); assay: co-IP; grade 'Binding avidity' of the summary table for full-length Pon and Numb; the table names no assay: full-length Pon and Numb were tested together only by co-IP in HEK293T cells (anti-Flag gel; Fig. 2e, f)

binding [1]: binds
Molecule: Pon 1-670 N139A,Y154E (Drosophila)

binding (HA-Numb PTB (Drosophila)): binds
binding [2]: binds
Molecule: Flag-Pon1-228 (Drosophila) (domain or fragment)

binding (Numb PTB R171A): no binding (tested: > 100 μM)
Molecule: Pon 110-148 (B1A2) (Drosophila) (domain or fragment)

binding (HA-Numb PTB (Drosophila)): no binding
Molecule: Flag-Pon 435-672 (Drosophila) (domain or fragment)

binding [1]: binds
Molecule: Pon 1-670 N169A,F186E (Drosophila)

binding (HA-Numb PTB (Drosophila)): no binding
binding [2]: no binding
Molecule: Flag-Pon1-116 (Drosophila) (domain or fragment)

binding [3]: binds
Molecule: Pon 1-228 (A1B3) (Drosophila) (domain or fragment)

binding (HA-Numb PTB (Drosophila)): no binding
Molecule: Flag-Pon 219-440 (Drosophila) (domain or fragment)

binding (HA-Numb PTB (Drosophila)): binds
binding [2]: binds
binding [1]: binds
Molecule: Flag-Pon full length (Drosophila)

binding [4]: binds
Molecule: Pon N-terminal fragment (aa 1–228), A1B1A2B2A3B3 (Drosophila) (domain or fragment)

binding (Numb PTB R171A): no binding (tested: > 100 μM)
binding [5]: binds
Molecule: Pon 130-162 (A2B2) (Drosophila) (domain or fragment)

binding [6]: binds
B1: Drosophila Numb PTB domain (aa 65-203) (domain or fragment, UniProt P16554-1 65-203)
chain: T2 sequence

binding [7]: binds
B2: Drosophila Numb PTB domain (aa 65–203) (domain or fragment, UniProt P16554-1 65-203)
chain: T2 sequence

binding [8]: binds
B3: Numb 1-556 G192D (protein, UniProt P16554-1 1-556)
chain: T1 sequence with G192D

binding [8]: no binding
B4: Numb 1-556 C90W,G192D (protein, UniProt P16554-1 1-556)
chain: T1 sequence with C90W, G192D

binding [8]: no binding
B5: Numb 1-556 C90W (protein, UniProt P16554-1 1-556)
chain: T1 sequence with C90W
